These are literature values, as cited in paper PMC11280027, “Conquering the beyond Rule of Five Space with an Optimized High-Throughput Caco-2 Assay to Close Gaps in Absorption Prediction” (Pharmaceutics, 2024).

For the data set the following is noted: human fraction absorbed; rounded to two significant figures; ref [17]; cited from earlier work.

For `Nc1nc2ccc(OC(F)(F)F)cc2s1` [Riluzole], the “Observed Human fa” value was 0.90.
